As usually defined, the kcat is the number of substrate molecules converted per active site and unit of time at saturation. As usually defined, the KM is the substrate concentration at which the rate is half of its maximum.

Experimental findings from the supplement of paper PMC7125110 are described below.

To fix the notation:
B1: glmS ribozyme (parent)
chain: AUAAAAGCGCCAGAACUACAGAAAUGUAGUUGACGAGGAGGAGGUUUAUCGAAUUUUCGGCGGAUGCCUCCAAA

± gives the standard error. Many entries were measured with a wide error. Some results are limits rather than exact numbers.

In the first series the parent is B1. In words: kcat; higher = faster cleavage; RNA array. To be noted: with glucosamine-6-phosphate. A digest of the protocol: (§1)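 A hybridised Cy3 probe tracked barcoded ribozyme variants, transcribed in situ by E. coli RNA polymerase on sequenced MiSeq chips, at 37 °C. The variants received 40 μM to 10 mM glucosamine-6-phosphate in HEPES/KCl/Mg(OAc)2 buffer. kobs came from decay fits and kcat and KM from weighted Michaelis–Menten fits.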
For AUAAAAGCGCCAGAAGUACAGAAAUGUACUUGACGAGGAGGAGGUUUAUCGAAUUUUCGGCGGAUGCCUCCAAA [C16G G29C], the kcat was 0.0089 ± 0.0065 s⁻¹.

As to AUAAAAGCGCCAGACCUACAGAAAUGUAGUUGACGAGGAGGAGGUUUAUCGAAUUUCCGGCGGAUGCCUCCAAA [A15C U57C], the turnover number (kcat) was 0.000166 ± 0.00014 s⁻¹.

Regarding AUAAAAGCGCCAGAGCUACAGAAAUGUAGUUGACGAGGAGGAGGUUUAUCGAAUUUUAGGCGGAUGCCUUCAAA [A15G C58A C70U], the kcat amounted to 0.000287 ± 0.00015 s⁻¹.

For the variant AUAAAAGCGCCAGAUCUACAGAAAUGUAGUUGACGAGGAGGAGGUUUAUCGAAUUUUUGGCGGAUGCCACCAAA [A15U C58U U69A], the catalytic constant (kcat) is 7.83e-05 ± 4.1e-05 s⁻¹.

In the case of AUAAAAGCGCCAGACCUACAGAAAUGUAGUUGACGAGGAGGAGGUUUAUGGAAUUUUCGGCGGAUGCCUCCAAA [A15C C50G], the catalytic constant (kcat) was found to be 3.85e-05 ± 3.4e-05 s⁻¹.

As for AUAAAAGCGCCAGUACUACAGAAAUGUAGUUGACGAGGAGGAGGUUUAUCGAAUUUUCGGCGGAUCCCUCCAAA [A14U G66C], the kcat stood at 0.000139 ± 1.3e-05 s⁻¹.

Turning to AUAAAAGCGCCAGUACUACAGAAAUGUAGUUGACGAGGAGGAGGUUUAUCGAAUUUUCGGCGGAUGCCCCCAAA [A14U U69C], the turnover number (kcat) stood at 0.000771 ± 0.0004 s⁻¹.

As to AUAAAAGCGCCAGAGGUACAGAAAUGUAGUUGACGAGGAGGAGGUUUAUCGAAUUUUCGGCGGAUGCCUCGAAA [A15G C16G C71G], the kcat is 0.000103 ± 1.4e-05 s⁻¹.

Consider AUAAAAGCGCCAGAGCUACAGAAAUGUAGUUGACGAGGAGGAGGUUUAGCGAAUUUUCGGCGGAUGCCUCCAAA [A15G U49G], for which the catalytic constant (kcat) came to 0.00183 ± 0.00093 s⁻¹.

For the variant AUAAAAGCGCCAGAAGUACAGAAAUGUAGUUGACGAGGAGGAGGCUUAUCGAAUUUUCGGCGGAUGCCUCCAAA [C16G U45C], the catalytic constant (kcat) was 0.0003 ± 7.1e-05 s⁻¹.

Turning to AUAAAAGCGCCAGACCUACAGAAAUGUAGUUGACGAGAAGGAGGUUUAUCGAAUUUGCGGCGGAUGCCUCCAAA [A15C G38A U57G], the kcat is less than 1e-05 s⁻¹.

For the variant AUAAAAGCGCCAGAAAUACAGAAAUGUAGUUGACGAGGAGGAGGUUUACCGAAUUUUCUGCGGAUGCCACCAAA [C16A U49C G59U U69A], the kcat was less than 1e-05 s⁻¹.

AUAAAAGCGCCAGAAGUACAGAAAUGUAGUCGACGAGGAGGAGGUUUAUCGAAUUUUCGGCGGAUGCCUCCAAA [C16G U31C]: the turnover number (kcat) is 0.000606 ± 0.00011 s⁻¹.

For AUAAAAGCGCCAGAGCUACAGAAAUGUAGUUGACGAGGAUGAGGUUUAUCGAAUUUUCGGCGGAUGCCUACAAA [A15G G40U C70A], the kcat was 0.000787 ± 0.00041 s⁻¹.

Take AUAAAAGCGCCAGACCUACAGAAAUGUAGUUGCCGAGGAGGAGGUUUAUCGAAUUUUCGGCGGAUGCCUCCAAA [A15C A33C]: the kcat was determined as 6.42e-05 ± 3.3e-06 s⁻¹.

Consider AUAAAAGCGCCAGAAGUACAGAAAUGUAGAUGACGAGGAGGAGGUUUAUCGAAUUUUCGGCGGAUGCCUCCAAA [C16G U30A], for which the kcat is 0.000474 ± 6e-05 s⁻¹.

AUAAAAGCGCCAGAAGUACAGAAAUGUAGUUGACGAGGAGGAGGUUUAUCGAAGUUUCGGCGGAUGCCUCCAAA [C16G U54G]: the catalytic constant (kcat) was found to be 0.00297 ± 0.00074 s⁻¹.

As to AUAAAAGCGCCAGAGCUACAGAAAUGUAGUUGACGAGGAGGGGGUUUAUCGAGUUUUCGGCGGAUGCCUCCAAA [A15G A42G A53G], the kcat is 0.0129 ± 0.0071 s⁻¹.

In another series the parent is B1. In words: KM; higher = weaker cofactor use; RNA array. The conditions noted are these: with glucosamine-6-phosphate. A digest of the protocol: as §1
Turning to AUAAAAGCGCCAGAAGUACAGAAAUGUACUUGACGAGGAGGAGGUUUAUCGAAUUUUCGGCGGAUGCCUCCAAA [C16G G29C], the KM turned out to be 568 ± 540 µM.

AUAAAAGCGCCAGAGCUACAGAAAUGUAGUUGACGAGGAGGAGGUUUAUCGAAUUUUAGGCGGAUGCCUUCAAA [A15G C58A C70U]: the KM was 1260 ± 1100 µM.

Consider AUAAAAGCGCCAGUACUACAGAAAUGUAGUUGACGAGGAGGAGGUUUAUCGAAUUUUCGGCGGAUCCCUCCAAA [A14U G66C], for which the KM is 5220 ± 1100 µM.

Turning to AUAAAAGCGCCAGUACUACAGAAAUGUAGUUGACGAGGAGGAGGUUUAUCGAAUUUUCGGCGGAUGCCCCCAAA [A14U U69C], the KM was determined as 613 ± 530 µM.

For the variant AUAAAAGCGCCAGAGGUACAGAAAUGUAGUUGACGAGGAGGAGGUUUAUCGAAUUUUCGGCGGAUGCCUCGAAA [A15G C16G C71G], the KM was found to be 354 ± 280 µM.

As to AUAAAAGCGCCAGAGCUACAGAAAUGUAGUUGACGAGGAGGAGGUUUAGCGAAUUUUCGGCGGAUGCCUCCAAA [A15G U49G], the Michaelis-Menten constant (KM) is 4540 ± 3400 µM.

Turning to AUAAAAGCGCCAGAAGUACAGAAAUGUAGUUGACGAGGAGGAGGCUUAUCGAAUUUUCGGCGGAUGCCUCCAAA [C16G U45C], the KM was found to be 1810 ± 1100 µM.

Take AUAAAAGCGCCAGAAGUACAGAAAUGUAGUCGACGAGGAGGAGGUUUAUCGAAUUUUCGGCGGAUGCCUCCAAA [C16G U31C]: the Michaelis constant (KM) worked out at 3720 ± 980 µM.

As for AUAAAAGCGCCAGAGCUACAGAAAUGUAGUUGACGAGGAUGAGGUUUAUCGAAUUUUCGGCGGAUGCCUACAAA [A15G G40U C70A], the Michaelis-Menten constant (KM) turned out to be 1990 ± 1600 µM.

As to AUAAAAGCGCCAGACCUACAGAAAUGUAGUUGCCGAGGAGGAGGUUUAUCGAAUUUUCGGCGGAUGCCUCCAAA [A15C A33C], the Michaelis constant (KM) was found to be 1900 ± 440 µM.

Take AUAAAAGCGCCAGAAGUACAGAAAUGUAGAUGACGAGGAGGAGGUUUAUCGAAUUUUCGGCGGAUGCCUCCAAA [C16G U30A]: the KM was 1780 ± 370 µM.

With AUAAAAGCGCCAGAAGUACAGAAAUGUAGUUGACGAGGAGGAGGUUUAUCGAAGUUUCGGCGGAUGCCUCCAAA [C16G U54G], the KM was found to be 1080 ± 460 µM.

As to AUAAAAGCGCCAGAGCUACAGAAAUGUAGUUGACGAGGAGGGGGUUUAUCGAGUUUUCGGCGGAUGCCUCCAAA [A15G A42G A53G], the KM is 276 ± 200 µM.

The variants in the next series derive from B1. In words: self-cleavage kobs at 640 uM GlcN6P; higher = faster cleavage; RNA array. To be noted: with glucosamine-6-phosphate. A digest of the protocol:
as §1
Take AUAAAAGCGCCAGACCUACAGAAAUGUAGUUGACGAGGAGGAGGUUUAUCGAAUUUCCGGCGGAUGCCUCCAAA [A15C U57C]: the “self-cleavage kobs at 640 uM GlcN6P” value is 2.06e-05 ± 2e-05 s⁻¹.

Take AUAAAAGCGCCAGUACUACAGAAAUGUAGUUGACGAGGAGGAGGUUUAUCGAAUUUUCGGCGGAUCCCUCCAAA [A14U G66C]: the “self-cleavage kobs at 640 uM GlcN6P” value stood at 2.31e-05 ± 1.4e-05 s⁻¹.

With AUAAAAGCGCCAGAGGUACAGAAAUGUAGUUGACGAGGAGGAGGUUUAUCGAAUUUUCGGCGGAUGCCUCGAAA [A15G C16G C71G], the “self-cleavage kobs at 640 uM GlcN6P” value stood at 5.94e-05 ± 3.2e-05 s⁻¹.

A further series covers variants of B1. In words: self-cleavage kobs at 2500 uM GlcN6P; higher = faster cleavage; RNA array. The conditions noted are these: with glucosamine-6-phosphate. A digest of the protocol: as §1
AUAAAAGCGCCAGACCUACAGAAAUGUAGUUGACGAGGAGGAGGUUUAUCGAAUUUCCGGCGGAUGCCUCCAAA [A15C U57C]: the “self-cleavage kobs at 2500 uM GlcN6P” value came out at 1.75e-05 ± 1e-05 s⁻¹.

With AUAAAAGCGCCAGAGCUACAGAAAUGUAGUUGACGAGGAGGGGGUUUAUCGAGUUUUCGGCGGAUGCCUCCAAA [A15G A42G A53G], the “self-cleavage kobs at 2500 uM GlcN6P” value was determined as 0.0159 ± 0.015 s⁻¹.

The variants in another series derive from B1. In words: self-cleavage kobs at 160 uM GlcN6P; higher = faster cleavage; RNA array. To be noted: with glucosamine-6-phosphate. A digest of the protocol:
as §1
On to AUAAAAGCGCCAGAAGUACAGAAAUGUAGUCGACGAGGAGGAGGUUUAUCGAAUUUUCGGCGGAUGCCUCCAAA [C16G U31C], for which the “self-cleavage kobs at 160 uM GlcN6P” value turned out to be 1.73e-05 ± 1.2e-05 s⁻¹.

The variants in the next series derive from B1. In words: self-cleavage kobs at 10000 uM GlcN6P; higher = faster cleavage; RNA array. The conditions noted are these: with glucosamine-6-phosphate. A digest of the protocol:
as §1
As to AUAAAAGCGCCAGAGCUACAGAAAUGUAGUUGACGAGGAGGGGGUUUAUCGAGUUUUCGGCGGAUGCCUCCAAA [A15G A42G A53G], the “self-cleavage kobs at 10000 uM GlcN6P” value is 0.0698 ± 0.038 s⁻¹.
